The other results are listed elsewhere or left out. Shown are side measurements of this screen, not its main read-out; they come without a call. The list favours compounds with an active or inconclusive main result. The note in brackets gives the kind of curve behind each potency; many fits are weak.

The nature of the assay: qHTS Assay for Lipid Storage Modulators in Drosophila S3 Cells.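 For cell number change: cells counted by Cell Tracker Red CMTPX staining in the red channel.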 The note with it: BODIPY lipid droplet fluorescence, 18-24 h; for cell number change: measured here: cell count max response, cells fed with added oleic acid. A digest of the protocol:
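Drosophila S3 cells loaded with oleic acid (400 uM, as added) and compounds at several concentrations; lipid droplets imaged by 488-nm laser-scanning cytometry, 500–530 nm intensity and object ratio to cell channel. Percent activity normalized to 20 uM Triacsin C.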

Setting [1] is: measured here: lipid fluorescence (Fed channel) AC50, cells fed with added oleic acid.
Where [2] appears, read: measured here: cell number channel AC50, cells fed with added oleic acid.

A word on the AC50: it is the concentration giving half of the maximal activity seen. Higher therefore signals weaker potency. `O=C(Nc1cccc(F)c1)Nc1ccnn1C1CCN(C(=O)CCN2CCCO2)CC1`: the cell number change stood at 16.8%. For the same compound, the AC50 under setting [1] is 6.51 µM [rising, partial curve, poor fit].
As for `COc1ccc(CNS(=O)(=O)c2ccc(-c3ccc(=O)[nH]n3)o2)cc1`, the cell number change was -31.2%. The AC50 under setting [2] was 29.1 µM [falling, single point].
For the compound `O=C(c1ccc(Br)o1)N1CCC(Cc2ccccc2)CC1`, the cell number change was -19.3%.
Consider `O=C(COc1ccccc1Cl)Nc1ccc2c(c1)OCO2`, for which the cell number change was -17.1%. In addition, the AC50 under setting [2] is 0.092 µM [rising, full curve, poor fit]. The AC50 under setting [1] is 35.5 µM [falling, single point].
For the compound `CCOC(=O)N1CCN(C(=O)c2ccc(CS(=O)Cc3ccc(C)cc3)o2)CC1` (centres undefined), under setting [1], the half-maximal activity concentration (AC50) is 11.6 µM [falling, partial curve, poor fit].
`Cc1ccccc1COn1nnc2ccc(S(=O)(=O)N3CCOCC3)cc21`: the cell number change is 139%. Moreover, the concentration at half-maximal activity (AC50) under setting [2] is 29.1 µM [rising, single point].
For the compound `Fc1ccc(CNC(=S)Nc2cccc(C(F)(F)F)c2)cc1`, the cell number change is -64.7%. Under setting [2], the AC50 was 18.4 µM [falling, partial curve]. Under setting [1], the AC50 is 23.1 µM [falling, partial curve, poor fit].
`O=C(COC(=O)c1ccncc1)NCc1ccccc1`: the cell number change was -85.7%. The AC50 under setting [2] was 4.61 µM [falling, full curve]. Also, under setting [1], the AC50 was 0.082 µM [falling, full curve].
As to `Cc1ccc(NC(=O)c2c(Cl)nc3ccccn23)cc1`, under setting [1], the concentration at half-maximal activity (AC50) is 0.103 µM [rising, full curve].
Turning to `Cc1nc2ccc(N)cc2c(=O)n1Cc1ccc(Cl)cc1`, the cell number change is 18%. Further, the AC50 under setting [1] is 2.06 µM [rising, partial curve].
With `COc1cccc2cc(C(=O)NCc3ccccc3Cl)c(=O)oc12`, the cell number change was -5.91%.
`COC(=O)C1CCN(S(=O)(=O)c2ccc(Br)s2)CC1`: the cell number change was found to be 14%. The AC50 under setting [1] is 32.6 µM [rising, single point].
As to `Cc1cccc(NC(=S)N2CCC(N(C)CC3CCCO3)CC2)c1C` (centres undefined), the cell number change was found to be 12.7%. Further, the AC50 under setting [1] is 32.6 µM [rising, single point].
Consider `Cc1cc(C)cc(NC(=O)C/C(N)=N/O)c1`, for which the cell number change is -24.1%. For the same compound, under setting [1], the AC50 was 0.651 µM [rising, partial curve, poor fit].
Consider `Cc1ccc(S(=O)(=O)N2CCN(CC(=O)Nc3ccc(N4CCOCC4)cc3)CC2)cc1C`, for which the cell number change stood at 9.66%.
With `CN1C(=O)CSc2ccc(NC(=O)NCc3ccco3)cc21`, the cell number change came to 63.7%. For the same compound, the AC50 under setting [2] was 0.517 µM [rising, partial curve]. In addition, the concentration at half-maximal activity (AC50) under setting [1] was 1.16 µM [rising, full curve, poor fit].
For the compound `COC(=O)c1cc(OC)c(OC)cc1NC(=O)C1CCC(=O)N1S(=O)(=O)c1ccc(C)cc1` (centres undefined), the AC50 is, setting by setting: under setting [2], 0.259 µM [rising, partial curve]; under setting [1], 0.082 µM [rising, full curve, poor fit].
On to `CN(C)S(=O)(=O)c1ccc(C(=O)NCc2ccccn2)cc1`, for which the cell number change is -19.5%.
Turning to `CCc1nc(NCc2ccccn2)c2oc3ccccc3c2n1`, the cell number change was -30.4%. Besides, the AC50 under setting [2] is 13 µM [falling, single point]. Also, the concentration at half-maximal activity (AC50) under setting [1] is 29.1 µM [rising, single point].
For `CCOc1ccc(OCCN2C(=O)NC3(CCCc4ccccc43)C2=O)cc1` (centres undefined), the cell number change is 8.43%. For the same compound, under setting [1], the AC50 is 2.06 µM [rising, partial curve].
As to `CCc1ccc(C(C)NC(=O)c2ccc3c(c2)OCO3)cc1` (centres undefined), the cell number change is 13.9%. Under setting [1], the half-maximal activity concentration (AC50) is 20.6 µM [rising, single point].
As for `COc1cccc(Nc2c3c(nc4c(-c5ccccc5)c(C)nn24)CCC3)c1`, the AC50 by setting is: under setting [2], 6.51 µM [rising, single point]; under setting [1], 0.164 µM [rising, full curve, poor fit].
For the compound `COC(=O)c1ccccc1NC(=O)CSc1nncn1C`, the cell number change is 19.3%. Under setting [2], the concentration at half-maximal activity (AC50) was 0.291 µM [rising, full curve, poor fit].
Consider `Cc1ccc(S(=O)(=O)N2CCN(C(=O)COC(=O)C3CCC3)CC2)c(C)c1`, for which the cell number change amounted to 2.56%. In addition, the AC50 under setting [1] was 20.6 µM [falling, single point].
Turning to `CCCCNc1c(-c2ccc(SC(C)CC)c(OC)c2)nc2ccc(C)cn12` (centres undefined), the cell number change is -75.6%. For the same compound, under setting [2], the half-maximal activity concentration (AC50) was 20.6 µM [falling, partial curve]. For the same compound, the AC50 under setting [1] is 0.13 µM [falling, full curve, poor fit].
Take `CCC1CCCCN1C(=O)c1cc(-c2ccc(Cl)c(Cl)c2)on1` (centres undefined): the cell number change is -26.5%. In addition, the concentration at half-maximal activity (AC50) under setting [1] is 23.1 µM [falling, single point].
On to `O=C1COc2ccc(C(=O)NC3CC3)cc2N1`, for which, under setting [2], the AC50 is 1.46 µM [rising, full curve, poor fit].
Consider `Cc1ccc(NC(=O)c2cc(S(=O)(=O)N3CCCCC3)c[nH]2)cc1F`, for which the cell number change turned out to be 15.6%. Besides, the AC50 under setting [1] is 3.26 µM [falling, single point].
Regarding `C/C(N)=C(/C#N)C(=O)COC(=O)C1CCN(C(=O)c2ccc(Cl)cc2)CC1`, the cell number change was -10.5%. The AC50 under setting [2] is 0.326 µM [falling, full curve].
In the case of `O=C(COC(=O)CCC(=O)c1ccc(Cl)cc1)NCC1CCCO1` (centres undefined), the cell number change stood at 55.9%. In addition, the AC50 under setting [2] was 20.6 µM [rising, partial curve].
As for `Cc1nnc(Sc2nc3ccccc3o2)c2ccccc12`, the cell number change is -3.11%. For the same compound, the AC50 under setting [1] was 3.26 µM [rising, single point].
Take `Nc1ccc(NC(=O)c2cccs2)c(Cl)c1`: the cell number change turned out to be 21.1%. In addition, the concentration at half-maximal activity (AC50) under setting [1] was 16.4 µM [rising, single point].
With `O=C(c1ccc(S(=O)(=O)Nc2ccccc2F)cc1)N1CCCC1`, the cell number change is 21.5%.
Regarding `O=C(c1csc2c1CCCC2)N1CCCCC1`, the cell number change was -5.24%. Moreover, the AC50 under setting [1] was 16.4 µM [falling, partial curve].
With `CC(=O)Nc1ccc(S(=O)(=O)N(Cc2cc3ccc(C)cc3[nH]c2=O)CC2CCCO2)cc1` (centres undefined), the cell number change is -2.95%.
In the case of `Cc1ccc(-n2nnc3ccccc3c2=O)cc1C`, the cell number change came out at 7.41%. Further, the AC50 under setting [1] is 2.59 µM [rising, full curve].
As to `CC(CCc1ccccc1)N1CCN(Cc2ccccc2)CC1` (centres undefined), the cell number change is -24.6%. Under setting [2], the AC50 was 0.231 µM [falling, full curve, poor fit].
As to `CCSc1ncnc2c1oc1ccccc12`, the cell number change is -5.39%. In addition, the AC50 under setting [1] is 4.11 µM [rising, full curve].
On to `Cc1ccc(S(=O)(=O)Nc2ccc(N3CCCCC3)cc2)cc1`, for which the cell number change is -6.15%.
`CCC(CO)Oc1cc(NC(=O)c2ccc(C)cc2)c2ncn(C(C)C)c2c1` (centres undefined): the cell number change came to 10.7%. Under setting [1], the half-maximal activity concentration (AC50) is 0.58 µM [falling, single point].
As for `NC(=O)CC(NC(=O)Cc1cccc2ccccc12)c1ccc(N2CCc3ccccc3C2)c([N+](=O)[O-])c1` (centres undefined), the cell number change stood at 16.6%. The AC50 under setting [1] was 13 µM [rising, single point].
As to `CC(C(=O)N1CCCCC1)N(C)CC(=O)Nc1cccc(F)c1` (centres undefined), the cell number change was -12.6%. The AC50 under setting [1] was 0.164 µM [falling, full curve, poor fit].
Regarding `COCCN(CCOC)c1nc(-c2ccc(Cl)cc2)nc2ccccc12`, the cell number change was 8.78%. For the same compound, the AC50 under setting [1] is 1.3 µM [falling, full curve].
In the case of `Cc1ccc(CN2CCN(CC(=O)O)C2=O)cc1`, the cell number change came out at 11.9%. The AC50 under setting [1] was 0.0206 µM [rising, full curve, poor fit].
Consider `CCCc1cc(=O)oc2c3c(cc(OCC(=O)NCC4CCC(C(=O)O)CC4)c12)OC(C)(C)CC3` (centres undefined), for which the cell number change was -18.1%. The AC50 under setting [1] was 3.66 µM [falling, single point].
With `CC(=O)c1ccc(OCC(=O)Nc2c(C)nn(-c3ccccc3)c2C)cc1`, the concentration at half-maximal activity (AC50) under setting [1] was 6.51 µM [rising, single point].
Take `Oc1[nH]c2ccccc2c1N=Nc1nc2ccccc2s1`: the AC50 under setting [1] was 6.51 µM [rising, single point].
On the same count and under the same terms, to `Clc1ccc(-c2nnc(-c3ccco3)nc2N2CCCCC2)cc1` belongs 4.11 µM [rising, single point].
For `C/C(=N\OC(=O)C1CC1)C1CC1c1ccc(F)cc1` (centres undefined), the cell number change is -42.2%.
For the compound `O=[N+]([O-])c1ccc2nonc2c1Nc1ccccc1`, the cell number change was -7.42%. Under setting [1], the AC50 was 29.1 µM [falling, single point].
For the compound `CC(C)C(NC(=O)c1ccco1)C(=O)OCC(=O)c1ccccc1` (centres undefined), the cell number change worked out at 3.54%. The half-maximal activity concentration (AC50) under setting [1] was 29.1 µM [rising, single point].
`Cc1cc(C)n(C(=O)N(c2ccccc2)c2ccccc2)n1`: the cell number change was -13.5%. For the same compound, the AC50 under setting [1] was 29.1 µM [rising, single point].
Turning to `O=C(c1cnn(C(=O)c2ccccc2)c1)c1ccccc1O`, the cell number change is 24.2%. Further, under setting [1], the AC50 is 13 µM [rising, single point].
For `O=S(=O)(c1ccc(Cl)s1)N1CCN(CCc2ccccc2)CC1`, the cell number change worked out at 16.8%.
For `O=C(Nc1nc(-c2ccccn2)cs1)c1ccc2c(c1)OCCO2`, the cell number change was -50.6%. In addition, under setting [2], the AC50 is 14.6 µM [falling, partial curve]. Further, the AC50 under setting [1] was 6.51 µM [falling, single point].
Consider `Cc1nc2sc(C(c3cccs3)N3CCN(c4ccccc4)CC3)c(O)n2n1` (centres undefined), for which the cell number change was determined as 2.94%. The AC50 under setting [2] is 6.51 µM [falling, single point]. Also, the half-maximal activity concentration (AC50) under setting [1] was 5.8 µM [falling, single point].
As to `O=C(C1CCN(S(=O)(=O)c2cccs2)CC1)N1CCCC(C(F)(F)F)C1` (centres undefined), the cell number change is -1.17%.
Regarding `Cc1ccc(/C=C/C(=O)O)cc1S(=O)(=O)NCCO`, the cell number change was -63%. For the same compound, under setting [2], the AC50 was 18.4 µM [falling, single point].
Consider `COc1cc(S(=O)(=O)N2CCN(c3ccccc3)CC2)ccc1F`, for which the cell number change was -25.5%. For the same compound, the AC50 under setting [1] is 29.1 µM [falling, single point].
Consider `COc1ccc(C(=O)Nc2nc3c(s2)Cc2cc(OC)ccc2-3)cc1`, for which the cell number change is -15.8%. The half-maximal activity concentration (AC50) under setting [1] is 0.00651 µM [falling, full curve, poor fit].
As to `O=C(NCc1cccs1)c1ccccc1`, the cell number change was found to be 37.1%. The concentration at half-maximal activity (AC50) under setting [2] was 14.6 µM [rising, single point].
`O=Nc1ccc(NOC(=O)c2ccccc2Br)cc1`: the cell number change amounted to 2.93%. Further, under setting [1], the AC50 was 3.26 µM [rising, partial curve, poor fit].
Turning to `CC(C)(C)c1cc(NC(=O)COC(=O)c2ccc(O)cc2O)n(-c2ccccc2)n1`, the cell number change came out at 231%. For the same compound, the AC50 under setting [2] is 29.1 µM [rising, single point]. Further, the concentration at half-maximal activity (AC50) under setting [1] was 29.1 µM [rising, partial curve].

(Values after PubChem BioAssay AID2685 (National Center for Advancing Translational Sciences (NCATS), 2010).)
